Patent publication US12729225B2, “Non-canonical SWI/SNF complex and uses thereof” (Dana-Farber Cancer Institute, Inc., priority 2018, dated 2026)

B1: NOP58 (protein, UniProt Q9Y2X3 1-529, looked up)
Nucleolar protein 58: MLVLFETSVGYAIFKVLNEKKLQEVDSLWKEFETPEKANKIVKLKHFEKFQDTAEALAAFTALMEGKINKQLKKVLKKIVKEAHEPLAVADAKLGGVIKEKLNLSCIHSPVVNELMRGIRSQMDGLIPGVEPREMAAMCLGLAHSLSRYRLKFSADKVDTMIVQAISLLDDLDKELNNYIMRCREWYGWHFPELGKIISDNLTYCKCLQKVGDRKNYASAKLSELLPEEVEAEVKAAAEISMGTEVSEEDICNILHLCTQVIEISEYRTQLYEYLQNRMMAIAPNVTVMVGELVGARLIAHAGSLLNLAKHAASTVQILGAEKALFRALKSRRDTPKYGLIYHASLVGQTSPKHKGKISRMLAAKTVLAIRYDAFGEDSSSAMGVENRAKLEARLRTLEDRGIRKISGTGKALAKTEKYEHKSEVKTYDPSGDSTLPTCSKKRKIEQVDKEDEITEKKAKKAKIKVKVEEEEEEKVAEEEETSVKKKKKRGKKKHIKEEPLSEEEPCTSTAIASPEKKKKKKKKRENED
B2: SF3B1 (protein)
chain: MAKIAKTHEDIEAQIREIQGKKAALDEAQGVGLDSTGYYDQEIYGGSDSRFAGYVTSIAATELEDDDDDYSSSTSLLGQKKPGYHAPVALLNDIPQSTEQYDPFAEHRPPKIADREDEYKKHRRTMIISPERLDPFADGGKTPDPKMNARTYMDVMREQHLTKEEREIRQQLAEKAKAGELKVVNGAAASQPPSKRKRRWDQTADQTPGATPKKLSSWDQAETPGHTPSLRWDETPGRAKGSETPGATPGSKIWDPTPSHTPAGAATPGRGDTPGHATPGHGGATSSARKNRWDETPKTERDTPGHGSGWAETPRTDRGGDSIGETPTPGASKRKSRWDETPASQMGGSTPVLTPGKTPIGTPAMNMATPTPGHIMSMTPEQLQAWRWEREIDERNRPLSDEELDAMFPEGYKVLPPPAGYVPIRTPARKLTATPTPLGGMTGFHMQTEDRTMKSVNDQPSGNLPFLKPDDIQYFDKLLVDVDESTLSPEEQKERKIMKLLLKIKNGTPPMRKAALRQITDKAREFGAGPLFNQILPLLMSPTLEDQERHLLVKVIDRILYKLDDLVRPYVHKILVVIEPLLIDEDYYARVEGREIISNLAKAAGLATMISTMRPDIDNMDEYVRNTTARAFAVVASALGIPSLLPFLKAVCKSKKSWQARHTGIKIVQQIAILMGCAILPHLRSLVEIIEHGLVDEQQKVRTISALAIAALAEAATPYGIESFDSVLKPLWKGIRQHRGKGLAAFLKAIGYLIPLMDAEYANYYTREVMLILIREFQSPDEEMKKIVLKVVKQCCGTDGVEANYIKTEILPPFFKHFWQHRMALDRRNYRQLVDTTVELANKVGAAEIISRIVDDLKDEAEQYRKMVMETIEKIMGNLGAADIDHKLEEQLIDGILYAFQEQTTEDSVMLNGFGTVVNALGKRVKPYLPQICGTVLWRLNNKSAKVRQQAADLISRTAVVMKTCQEEKLMGHLGVVLYEYLGEEYPEVLGSILGALKAIVNVIGMHKMTPPIKDLLPRLTPILKNRHEKVQENCIDLVGRIADRGAEYVSAREWMRICFELLELLKAHKKAIRRATVNTFGYIAKAIGPHDVLATLLNNLKVQERQNRVCTTVAIAIVAETCSPFTVLPALMNEYRVPELNVQNGVLKSLSFLFEYIGEMGKDYIYAVTPLLEDALMDRDLVHRQTASAVVQHMSLGVYGFGCEDSLNHLLNYVWPNVFETSPHVIQAVMGALEGLRVAIGPCRMLQYCLQGLFHPARKVRDVYWKIYNSIYIGSQDALIAHYPRIYNDDKNTYIRYELDYIL
B3: PHF10 (protein)
chain: AAAAGPGAALSPRPCDSDPATPGAQSPKDDNEDNSNDGTQPSKRRRMGSGDSSRSCETSSQDLGFSYYPAENLIEYKWPPDETGEYYMLQEQVSEYLGVTSFKRKYPDLERRDLSHKEKLYLRELNVITETQCTLGLTALRSDEVIDLMIKEYPAKHAEYSVILQEKERQRITDHYKEYSQMQQQNTQKVEASKVPEYIKKAAKKAAEFNSNLNRERMEERRAYFDLQTHVIQVPQGKYKVLPTERTKVSSYPVALIPGQFQEYYKRYSPDELRYLPLNTALYEPPLDPELPALDSDGDSDDGEDGRGDEKRKNKGTSDSSSGNVSEGESPPDSQEDSFQGRQKSKDKAATPRKDGPKRSVLSKSVPGYKPKVIPNAICGICLKGKESNKKGKAESLIHCSQCENSGHPSCLDMTMELVSMIKTYPWQCMECKTCIICGQPHHEEEMMFCDMCDRGYHTFCVGLGAIPSGRWICDCCQRAPPTPRKVGRRGKNSKEG
B4: SSR4 (protein, UniProt P51571 24-173, looked up)
Translocon-associated protein …: EACLEPQITPSYYTTSDAVISTETVFIVEISLTCKNRVQNMALYADVGGKQFPVTRGQDVGRYQVSWSLDHKSAHAGTYEVRFFDEESYSLLRKAQRNNEDISIIPPLFTVSVDHRGTWNGPWVSTEVLAAAIGLVIYYLAFSAKSHIQA
B5: NIPSNAP1 (protein, UniProt Q9BPW8 36-284, looked up)
Protein NipSnap homolog 1: SKDNEGSWFRSLFVHKVDPRKDAHSTLLSKKETSNLYKIQFHNVKPEYLDAYNSLTEAVLPKLHLDEDYPCSLVGNWNTWYGEQDQAVHLWRFSGGYPALMDCMNKLKNNKEYLEFRRERSQMLLSRRNQLLLEFSFWNEPQPRMGPNIYELRTYKLKPGTMIEWGNNWARAIKYRQENQEAVGGFFSQIGELYVVHHLWAYKDLQSREETRNAAWRKRGWDENVYYTVPLVRHMESRIMIPLKISPLQ
B6: MTHFD2 (protein, UniProt P13995 36-350, looked up)
Bifunctional …: EAVVISGRKLAQQIKQEVRQEVEEWVASGNKRPHLSVILVGENPASHSYVLNKTRAAAVVGINSETIMKPASISEEELLNLINKLNNDDNVDGLLVQLPLPEHIDERRICNAVSPDKDVDGFHVINVGRMCLDQYSMLPATPWGVWEIIKRTGIPTLGKNVVVAGRSKNVGMPIAMLLHTDGAHERPGGDATVTISHRYTPKEQLKKHTILADIVISAAGIPNLITADMIKEGAAVIDVGINRVHDPVTAKPKLVGDVDFEGVRQKAGYITPVPGGVGPMTVAMLMKNTIIAAKKVLRLEEREVLKSKELGVATN
B7: IDH2 (protein, UniProt P48735 40-452, looked up)
Isocitrate dehydrogenase …: ADKRIKVAKPVVEMDGDEMTRIIWQFIKEKLILPHVDIQLKYFDLGLPNRDQTDDQVTIDSALATQKYSVAVKCATITPDEARVEEFKLKKMWKSPNGTIRNILGGTVFREPIICKNIPRLVPGWTKPITIGRHAHGDQYKATDFVADRAGTFKMVFTPKDGSGVKEWEVYNFPAGGVGMGMYNTDESISGFAHSCFQYAIQKKWPLYMSTKNTILKAYDGRFKDIFQEIFDKHYKTDFDKNKIWYEHRLIDDMVAQVLKSSGGFVWACKNYDGDVQSDILAQGFGSLGLMTSVLVCPDGKTIEAEAAHGTVTRHYREHQKGRPTSTNPIASIFAWTRGLEHRGKLDGNQDLIRFAQMLEKVCVETVESGAMTKDLAGCIHGLSNVKLNEHFLNTTDFLDTIKSNLDRALGRQ
B8: GCDH (protein, UniProt Q92947 45-438, looked up)
Glutaryl-CoA dehydrogenase, …: RPEFDWQDPLVLEEQLTTDEILIRDTFRTYCQERLMPRILLANRNEVFHREIISEMGELGVLGPTIKGYGCAGVSSVAYGLLARELERVDSGYRSAMSVQSSLVMHPIYAYGSEEQRQKYLPQLAKGELLGCFGLTEPNSGSDPSSMETRAHYNSSNKSYTLNGTKTWITNSPMADLFVVWARCEDGCIRGFLLEKGMRGLSAPRIQGKFSLRASATGMIIMDGVEVPEENVLPGASSLGGPFGCLNNARYGIAWGVLGASEFCLHTARQYALDRMQFGVPLARNQLIQKKLADMLTEITLGLHACLQLGRLKDQDKAAPEMVSLLKRNNCGKALDIARQARDMLGGNGISDEYHVIRHAMNLEAVNTYEGTHDIHALILGRAITGIQAFTASK
B9: HNRNPL (protein, UniProt P14866 1-589, looked up)
Heterogeneous nuclear …: MSRRLLPRAEKRRRRLEQRQQPDEQRRRSGAMVKMAAAGGGGGGGRYYGGGSEGGRAPKRLKTDNAGDQHGGGGGGGGGAGAAGGGGGGENYDDPHKTPASPVVHIRGLIDGVVEADLVEALQEFGPISYVVVMPKKRQALVEFEDVLGACNAVNYAADNQIYIAGHPAFVNYSTSQKISRPGDSDDSRSVNSVLLFTILNPIYSITTDVLYTICNPCGPVQRIVIFRKNGVQAMVEFDSVQSAQRAKASLNGADIYSGCCTLKIEYAKPTRLNVFKNDQDTWDYTNPNLSGQGDPGSNPNKRQRQPPLLGDHPAEYGGPHGGYHSHYHDEGYGPPPPHYEGRRMGPPVGGHRRGPSRYGPQYGHPPPPPPPPEYGPHADSPVLMVYGLDQSKMNCDRVFNVFCLYGNVEKVKFMKSKPGAAMVEMADGYAVDRAITHLNNNFMFGQKLNVCVSKQPAIMPGQSYGLEDGSCSYKDFSESRNNRFSTPEQAAKNRIQHPSNVLHFFNAPLEVTEENFFEICDELGVKRPSSVKVFSGKSERSSSGLLEWESKSDALETLGFLNHYQMKNPNGPYPYTLKLCFSTAQHAS
B10: ATAD3B (protein, UniProt Q5T9A4 2-648, looked up)
ATPase family AAA …: SWLFGVNKGPKGEGAGPPPPLPPAQPGAEGGGDRGLGDRPAPKDKWSNFDPTGLERAAKAARELEHSRYAKEALNLAQMQEQTLQLEQQSKLKEYEAAVEQLKSEQIRAQAEERRKTLSEETRQHQARAQYQDKLARQRYEDQLKQQQLLNEENLRKQEESVQKQEAMRRATVEREMELRHKNEMLRVETEARARAKAERENADIIREQIRLKASEHRQTVLESIRTAGTLFGEGFRAFVTDRDKVTATVAGLTLLAVGVYSAKNATAVTGRFIEARLGKPSLVRETSRITVLEALRHPIQVSRRLLSRPQDVLEGVVLSPSLEARVRDIAIATRNTKKNRGLYRHILLYGPPGTGKTLFAKKLALHSGMDYAIMTGGDVAPMGREGVTAMHKLFDWANTSRRGLLLFMDEADAFLRKRATEEISKDLRATLNAFLYHMGQHSNKFMLVLASNLPEQFDCAINSRIDVMVHFDLPQQEERERLVRLHFDNCVLKPATEGKRRLKLAQFDYGRKCSEVARLTEGMSGREIAQLAVSWQATAYASKDGVLTEAMMDACVQDAVQQYRQKMRWLKAEGPGRGVEHPLSGVQGETLTSWSLATDPSYPCLAGPCTFRICSWMGTGLCPGPLSPRMSCGGGRPFCPPGHPLL
B11: KPNA3 (protein, UniProt O00505 2-521, looked up)
Importin subunit alpha-4: AENPSLENHRIKSFKNKGRDVETMRRHRNEVTVELRKNKRDEHLLKKRNVPQEESLEDSDVDADFKAQNVTLEAILQNATSDNPVVQLSAVQAARKLLSSDRNPPIDDLIKSGILPILVKCLERDDNPSLQFEAAWALTNIASGTSAQTQAVVQSNAVPLFLRLLRSPHQNVCEQAVWALGNIIGDGPQCRDYVISLGVVKPLLSFISPSIPITFLRNVTWVIVNLCRNKDPPPPMETVQEILPALCVLIYHTDINILVDTVWALSYLTDGGNEQIQMVIDSGVVPFLVPLLSHQEVKVQTAALRAVGNIVTGTDEQTQVVLNCDVLSHFPNLLSHPKEKINKEAVWFLSNITAGNQQQVQAVIDAGLIPMIIHQLAKGDFGTQKEAAWAISNLTISGRKDQVEYLVQQNVIPPFCNLLSVKDSQVVQVVLDGLKNILIMAGDEASTIAEIIEECGGLEKIEVLQQHENEDIYKLAFEIIDQYFSGDDIDEDPCLIPEATQGGTYNFDPTANLQTKEFNF

Tested on: mSWI/SNF complexes
Test: mSWI/SNF complex purification with HA-tagged baits and mass spectrometry (peptide counts)
Parameters: species or system human
Conditions: 293_HA-BRD7: HA-BRD7 bait purification; for Total: total peptide count per co-purified protein; for Unique: unique peptide count per co-purified protein

Row | Molecule | Total | Unique
1 | B1 | 5 | 5
2 | B2 | 5 | 5
3 | B3 | 58 | 31
4 | B4 | 6 | 5
5 | B5 | 5 | 5
6 | B6 | 5 | 5
7 | B7 | 6 | 5
8 | B8 | 5 | 5
9 | B9 | 5 | 5
10 | B10 | 6 | 5
11 | B11 | 5 | 5
